For seven substances, binding results are on record in paper PMC6549353.

These are yes or no findings as the source states them, for the method shown. In cells and extracts the contact can be indirect. Here binding means that the protein was enriched with, or labelled near, the bait; the list need not be complete.

The experiment addresses T1, goat recombinant IL4 (rIL4) (goat) (UniProt P79155).
T1 sequence: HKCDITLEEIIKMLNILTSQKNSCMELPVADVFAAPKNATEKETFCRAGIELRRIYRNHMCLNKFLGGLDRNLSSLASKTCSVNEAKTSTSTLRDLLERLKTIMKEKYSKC
The experiment can be described thus: affinity purification with mass spectrometry; immunoprecipitates of rIL4 with HcESPs from the Co-IP; in-solution trypsin digestion, LC/MS-MS (Q Exactive), Mascot 2.2; at least 2 unique peptides; only the target purified.
On to “Calponin actin-binding domain containing protein (HcCab), native in HcESPs (Haemonchus contortus)”, for which the binding result is “binds”.

Regarding “Enolase domain containing protein (HcENO) (Haemonchus contortus)”, the binding entry is given as “binds”.

For “Globin domain containing protein (HcGB) (Haemonchus contortus)”, the binding entry is reported as “binds”.

For the substance “Glutathione S-transferase domain containing protein (HcGST), native in HcESPs (Haemonchus contortus)”, the binding result is given as “binds”.

In the case of “Glyceraldehyde-3-phosphate dehydrogenase (HcGAPDH) (Haemonchus contortus)”, the binding result is reported as “binds”.

For the substance “Phosphoenolpyruvate carboxykinase domain containing protein (HcPEPCK) (Haemonchus contortus)”, the binding result is reported as “binds”.

Turning to “Transthyretin domain containing protein (HcTTR), native in HcESPs (Haemonchus contortus)”, the binding entry is listed as “binds”.
